Measured data: PubChem BioAssay AID493246 (Drosophila RNAi Screening Center, 2011)
The screen tested about 21,000 reagents; this is a random part of those with a known target gene and a result. Of all reagents, 429 (2%) are marked active. 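Values are raw and not normalised between plates; calls rest on per-plate z-scores that were not deposited.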 Not stated in the record: the amount of reagent, the time to read-out.

- Aim: 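Identify essential fly genes by loss of cell viability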 (primary screen)
- Cells: Drosophila Kc and S2R+ cells
- Reagent: long dsRNA against Drosophila genes
- Detection: 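Cell number per well after knock-down, printed as raw plate values; calls were based on per-plate z-scores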
- Reading the numbers: Kc cell number and S2R+ cell number: higher = more cells remaining
- Call rule: 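Counted as a hit if cell number falls by a z-score of at least 3 within its plate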

no.	gene knocked down	amplicon	Kc cell number, rep 1	Kc cell number, rep 2	S2R+ cell number, rep 1	S2R+ cell number, rep 2	Outcome
1	CG6013	DRSC15947	1.52e6	1.60e6	1.14e6	1.17e6	inactive
2	Twdlbeta (Tweedlebeta)	DRSC07310	1.67e6	1.76e6	1.41e6	1.58e6	inactive
3	Bdbt (Bride of doubletime)	DRSC15218	1.46e6	1.68e6	9.37e5	1.00e6	inactive
4	CG13110	DRSC02208	1.52e6	1.47e6	1.09e6	1.14e6	inactive
5	CG10035	DRSC14177	1.47e6	1.51e6	1.20e6	1.31e6	inactive
6	Cyp12a4 (Cytochrome P450 12a4)	DRSC16620	1.34e6	1.39e6	1.03e6	1.10e6	inactive
7	GstD10 (Glutathione S transferase D10)	DRSC15346	1.46e6	1.36e6	1.19e6	1.28e6	inactive
8	CG32726	DRSC17521	1.18e6	1.42e6	1.06e6	1.09e6	inactive
9	CG34353	DRSC14493	1.66e6	1.72e6	1.05e6	1.17e6	inactive
10	CG34353	DRSC14517	1.55e6	1.65e6	1.03e6	1.15e6	inactive
11	CG34353	DRSC14563	1.65e6	1.72e6	1.03e6	1.18e6	inactive
12	CG34353	DRSC15837	1.55e6	1.58e6	9.79e5	1.14e6	inactive
13	btd (buttonhead)	DRSC18747	1.53e6	1.49e6	1.01e6	1.09e6	inactive
14	glob3 (globin 3)	DRSC12261	1.58e6	1.93e6	1.28e6	1.40e6	inactive
15	Rnb (R and B)	DRSC16325	5.50e5		8.10e5		inactive
16	CG14971	DRSC08430	1.36e6	1.51e6	1.12e6	1.12e6	inactive
17	CG17385	DRSC06664	1.83e6	1.73e6	1.40e6	1.57e6	inactive
18	CG46339	DRSC14136	4.94e5		8.40e5		inactive
19	lin-28	DRSC10261	1.72e6	1.70e6	1.26e6	1.28e6	inactive

Ordered by “Kc cell number, rep 1” (descending): 6 of the entries above.
gene knocked down	amplicon	Kc cell number, rep 1	Kc cell number, rep 2	S2R+ cell number, rep 1	S2R+ cell number, rep 2	Outcome
CG34353	DRSC14563	1.65e6	1.72e6	1.03e6	1.18e6	inactive
glob3 (globin 3)	DRSC12261	1.58e6	1.93e6	1.28e6	1.40e6	inactive
CG34353	DRSC14517	1.55e6	1.65e6	1.03e6	1.15e6	inactive
CG34353	DRSC15837	1.55e6	1.58e6	9.79e5	1.14e6	inactive
btd (buttonhead)	DRSC18747	1.53e6	1.49e6	1.01e6	1.09e6	inactive
Rnb (R and B)	DRSC16325	5.50e5		8.10e5		inactive

Additional results:
no.	gene knocked down	amplicon	Kc cell number, rep 1	Kc cell number, rep 2	S2R+ cell number, rep 1	S2R+ cell number, rep 2	Outcome
20	CG4968	DRSC02794	1.58e6	1.63e6	1.11e6	1.21e6	inactive
21	Tsp66E (Tetraspanin 66E)	DRSC09683	1.29e6	1.34e6	1.19e6	1.20e6	inactive
22	Cyp9f3 (Cytochrome P450 9f3)	DRSC16636	1.32e6	1.31e6	1.28e6	1.35e6	inactive
23	Bet5 (Blocked early in transport 5)	DRSC14600	1.44e6	1.43e6	1.01e6	1.16e6	inactive
24	fs(1)N (female sterile (1) Nasrat)	DRSC18578	1.44e6	1.42e6	1.03e6	1.16e6	inactive
25	Femcoat	DRSC18061	1.44e6	1.39e6	9.87e5	1.08e6	inactive
26	CG6678	DRSC16092	1.52e6	1.53e6	1.23e6	1.27e6	inactive
27	CG13884	DRSC08354	1.43e6	1.44e6	1.08e6	1.28e6	inactive
28	CG6923	DRSC16136	1.58e6	1.62e6	1.20e6	1.33e6	inactive
29	Mst27D (Male specific transcript 27D)	DRSC00967	1.74e6	1.74e6	1.22e6	1.46e6	inactive
30	Ciz1 (Ciz1 zinc finger protein)	DRSC09675	1.89e6	1.87e6	1.14e6	1.33e6	inactive
31	btsz (bitesize)	DRSC14982	1.33e6	1.36e6	7.59e5	8.72e5	inactive
32	btsz (bitesize)	DRSC16231	1.35e6	1.33e6	1.11e6	1.28e6	inactive
33	CG3335	DRSC10358	1.31e6	1.40e6	1.07e6	1.21e6	inactive
34	CG13321	DRSC06358	1.43e6	1.49e6	1.21e6	1.29e6	inactive
35	Zip42C.1 (Zinc/iron regulated transporter-related protein 42C.1)	DRSC05003	1.73e6	1.82e6	1.35e6	1.54e6	inactive
36	Sec24AB (Secretory 24AB)	DRSC06478	1.61e6	1.64e6	1.09e6	1.18e6	inactive
37	CG13891	DRSC08361	1.23e6	1.26e6	1.06e6	1.28e6	inactive
38	CG10280	DRSC12133	1.62e6	1.98e6	1.24e6	1.41e6	inactive
39	tef (teflon)	DRSC07301	1.47e6	1.47e6	1.33e6	1.30e6	inactive
40	CR12798 (pseudo)	DRSC21078	1.59e6	1.67e6	1.07e6	1.16e6	inactive
